Each structure is given as a SMILES string. The list shows only some results of the screen, not a fair sample: it is rich in T/C values a quarter to a half above the control, in often repeated tests (any T/C) and in doses without a T/C. Further doses and runs are listed elsewhere. T/C: endpoint of the treated group in % of that of the vehicle group. Some entries give survivors of the animals treated and no T/C: the source files T/C as zero there, which appears to mark a toxic dose or a test without result, not a measured value. Some survivor counts are full or nearly so, which does not show that the dose was tolerated: the source hardly ever lists a survival T/C far under the control, and the zero likely stands for such cases as well. Counts of survivors are from the toxicity check (mostly the fifth day) where no day follows; animals may have died later. Schedules are NCI's codes, read here as Q, the interval in days (D) or hours (H), X, the number of doses. Some schedules carry Z or #; the key to these is not given. Some entries hold several experiments; the results are listed from low to high. For survival time, this PubChem deposit counts one and a half times the control or more as active, and values a quarter to a half above the control carry no call in these data; other NCI protocols may use other cut-offs. Additions like (4×) stand for listed records that agree. Some T/C values carry the count of animals alive at the toxicity check (mostly the fifth day); where none is given, no animal had died by that day.

From PubChem BioAssay AID248 (DTP/NCI, 2004) come the findings set out here.

This assay deals with L1210 leukemia ip in BDF1 mice, survival T/C. In words: NCI In Vivo Anticancer Drug Screen. Data for tumor model L1210 Leukemia (intraperitoneal) in B6D2F1 (BDF1) mice. The following applies: T/C endpoint: mean survival time, higher T/C = longer survival.

In the case of `CCN(CC)CCNc1ccc(C)c2sc3ccccc3c(=O)c12`, the survivor count runs as follows: (dose: 6.25 mg/kg/injection, schedule: Q01DX Z (ip), vehicle: methylcellulose (MC)) 6 of 6; (dose: 12.5 mg/kg/injection, schedule: Q01DX Z (ip), vehicle: methylcellulose (MC)) 6 of 6; (dose: 24.0 mg/kg/injection, schedule: Q01DX006 (iv), vehicle: saline) 3 of 6; (dose: 25.0 mg/kg/injection, schedule: Q01DX Z (ip), vehicle: methylcellulose (MC)) 0 of 6 and 6 of 6; (dose: 48.0 mg/kg/injection, schedule: Q01DX006 (iv), vehicle: saline) 0 of 6; (dose: 50.0 mg/kg/injection, schedule: Q01DX Z (ip), vehicle: methylcellulose (MC)) 0 of 6 and 6 of 6. The survivor count is listed as 6 of 6 (dose: 50.0 mg/kg/injection, schedule: Q04DX003 (ip), vehicle: saline); 0 of 6 (dose: 96.0 mg/kg/injection, schedule: Q01DX006 (iv), vehicle: saline); 0 of 6 (dose: 100.0 mg/kg/injection, schedule: Q01DX Z (ip), vehicle: methylcellulose (MC)); 6 of 6 (dose: 140.0 mg/kg/injection, schedule: Q01DX Z (ip), vehicle: carboxymethylcellulose (CMC)); 5 of 6 (dose: 200.0 mg/kg/injection, schedule: Q01DX Z (ip), vehicle: carboxymethylcellulose (CMC)); 6 of 6 (dose: 215.0 mg/kg/injection, schedule: Q01DX Z (ip), vehicle: carboxymethylcellulose (CMC)). Further, the survivor count (dose: 270.0 mg/kg/injection, schedule: Q01DX Z (ip), vehicle: other) is 3 of 6; the survivor count (dose: 320.0 mg/kg/injection, schedule: Q01DX Z (ip), vehicle: carboxymethylcellulose (CMC)) is reported as 1 of 6; the survivor count (dose: 320.0 mg/kg/injection, schedule: Q01DX Z (sc), vehicle: carboxymethylcellulose (CMC)) is 6 of 6; the survivor count (dose: 330.0 mg/kg/injection, schedule: Q01DX001 (ip), vehicle: water) is recorded as 0 of 6; the survivor count (dose: 400.0 mg/kg/injection, schedule: Q01DX Z (oral), vehicle: saline) is given as 6 of 6; the survivor count (dose: 480.0 mg/kg/injection, schedule: Q01DX Z (sc), vehicle: carboxymethylcellulose (CMC)) is listed as 6 of 6. Besides, the survivor count is 0 of 6 (dose: 495.0 mg/kg/injection, schedule: Q01DX001 (ip), vehicle: water); 0 of 6 (dose: 600.0 mg/kg/injection, schedule: Q01DX001 (ip), vehicle: Klucel (hydroxypropylcellulose) (HPC)); 3 of 6 (dose: 600.0 mg/kg/injection, schedule: Q01DX001 (ip), vehicle: saline); 1 of 6 (dose: 600.0 mg/kg/injection, schedule: Q01DX001 (ip), vehicle: water); 0 of 6 (dose: 742.0 mg/kg/injection, schedule: Q01DX001 (ip), vehicle: water). Moreover, the T/C by setting is: (dose: 12.5 mg/kg/injection, schedule: Q01DX009 (ip), vehicle: saline) 106, 109, 115, 118 % of control; (dose: 25.0 mg/kg/injection, schedule: Q01DX009 (ip), vehicle: saline) 106 (2×), 109, 122 [5 of 6 alive], 124, 148 % of control; (dose: 30.0 mg/kg/injection, schedule: Q01DX Z (oral), vehicle: carboxymethylcellulose (CMC)) 127 % of control; (dose: 48.0 mg/kg/injection, schedule: Q01DX Z (ip), vehicle: saline) 129 % of control; (dose: 50.0 mg/kg/injection, schedule: Q01DX005 (ip), vehicle: Klucel (hydroxypropylcellulose) (HPC)) 126 % of control; (dose: 50.0 mg/kg/injection, schedule: Q01DX009 (ip), vehicle: saline) 107, 121, 130, 132, 140, 143 % of control [5 of 6 alive]. Also, the T/C reads like this: (dose: 50.0 mg/kg/injection, schedule: Q01DX010 (ip), vehicle: saline) 136 % of control (2×); (dose: 50.0 mg/kg/injection, schedule: Q01DX Z (oral), vehicle: carboxymethylcellulose (CMC)) 143 % of control; (dose: 50.0 mg/kg/injection, schedule: Q01DX Z (oral), vehicle: saline) 125 % of control; (dose: 60.0 mg/kg/injection, schedule: Q01DX Z (ip), vehicle: carboxymethylcellulose (CMC)) 134 % of control; (dose: 64.7 mg/kg/injection, schedule: Q01DX Z (ip), vehicle: carboxymethylcellulose (CMC)) 137, 141, 147 % of control; (dose: 80.0 mg/kg/injection, schedule: Q01DX Z (ip), vehicle: carboxymethylcellulose (CMC)) 132 and 139 % of control. The T/C is 147 % of control (dose: 87.0 mg/kg/injection, schedule: Q01DX Z (ip), vehicle: methylcellulose (MC)); 134 % of control [5 of 6 alive] (dose: 90.0 mg/kg/injection, schedule: Q01DX Z (ip), vehicle: carboxymethylcellulose (CMC)); 147 % of control (dose: 90.0 mg/kg/injection, schedule: Q01DX Z (ip), vehicle: other); 141 % of control (dose: 96.0 mg/kg/injection, schedule: Q01DX Z (sc), vehicle: carboxymethylcellulose (CMC)); 133 and 147 % of control (dose: 100.0 mg/kg/injection, schedule: Q01DX005 (ip), vehicle: Klucel (hydroxypropylcellulose) (HPC)); 89, 91 [5 of 6 alive], 131 [5 of 6 alive], 144, 155, 161 % of control (dose: 100.0 mg/kg/injection, schedule: Q01DX009 (ip), vehicle: saline). Besides, the T/C reads like this: (dose: 100.0 mg/kg/injection, schedule: Q01DX Z (ip), vehicle: carboxymethylcellulose (CMC)) 138 % of control; (dose: 100.0 mg/kg/injection, schedule: Q01DX Z (oral), vehicle: saline) 143 % of control; (dose: 100.0 mg/kg/injection, schedule: Q04DX003 (ip), vehicle: Klucel (hydroxypropylcellulose) (HPC)) 134 and 138 % of control; (dose: 100.0 mg/kg/injection, schedule: Q04DX003 (ip), vehicle: water) 140 % of control; (dose: 107.05 mg/kg/injection, schedule: Q01DX Z (ip), vehicle: carboxymethylcellulose (CMC)) 125 % of control; (dose: 130.0 mg/kg/injection, schedule: Q01DX Z (ip), vehicle: methylcellulose (MC)) 131 % of control. For the same compound, the T/C by setting is: (dose: 140.0 mg/kg/injection, schedule: Q01DX Z (im), vehicle: carboxymethylcellulose (CMC)) 132 % of control; (dose: 200.0 mg/kg/injection, schedule: Q04DX003 (ip), vehicle: saline) 126 % of control; (dose: 200.0 mg/kg/injection, schedule: Q04DX003 (ip), vehicle: water) 137 % of control; (dose: 300.0 mg/kg/injection, schedule: Q01DX001 (ip), vehicle: Klucel (hydroxypropylcellulose) (HPC)) 145 % of control; (dose: 300.0 mg/kg/injection, schedule: Q01DX001 (ip), vehicle: saline) 136 % of control [5 of 6 alive].

`NCCCC(NC(=O)CCCCCCCCN=C(N)N)C(O)CCCCCCCCN=C(N)N` (stereo unspecified): the survivor count (dose: 40.0 mg/kg/injection, schedule: Q01DX001 (ip), vehicle: carboxymethylcellulose (CMC)) is listed as 2 of 4; the survivor count (dose: 80.0 mg/kg/injection, schedule: Q01DX001 (ip), vehicle: carboxymethylcellulose (CMC)) is given as 2 of 4; the survivor count (dose: 100.0 mg/kg/injection, schedule: Q01DX001 (ip), vehicle: carboxymethylcellulose (CMC)) is recorded as 2 of 4; the survivor count (dose: 200.0 mg/kg/injection, schedule: Q01DX001 (ip), vehicle: carboxymethylcellulose (CMC)) is listed as 1 of 4; the survivor count (dose: 400.0 mg/kg/injection, schedule: Q01DX001 (ip), vehicle: carboxymethylcellulose (CMC)) is 0 of 4.

For `O=C1c2cccc3c(Br)ccc(c23)C(=O)N1CCCN1CCOCC1`, the survivor count (dose: 100.0 mg/kg/injection, schedule: Q01DX009 (ip), vehicle: Klucel (hydroxypropylcellulose) (HPC)) is reported as 3 of 6; the survivor count (dose: 200.0 mg/kg/injection, schedule: Q01DX009 (ip), vehicle: Klucel (hydroxypropylcellulose) (HPC)) is 4 of 6; the survivor count (dose: 400.0 mg/kg/injection, schedule: Q01DX009 (ip), vehicle: Klucel (hydroxypropylcellulose) (HPC)) was 0 of 6.

Take `CCCOP(=S)(NCCCOC)OCCC`: where the note is “dose: 400.0 mg/kg/injection, schedule: Q01DX001 (ip), vehicle: other”, the survivor count was 6 of 6.
